Data published in patent US20170184604A1, “DD1ALPHA RECEPTOR AND USES THEREOF IN IMMUNE DISORDERS” (THE GENERAL HOSPITAL CORPORATION, priority 2014, published 2017).
Results are given in words; binding and its absence hold for the method and conditions named. Binding seen in cells or lysates may run through a third protein. Some entries that bind do so weakly or less than the wild type. For part of these data: Tags and fused reporters may be left off the sequences shown.

Chains of the proteins cited; added tags and fusions are not shown. Lines headed by an entry give the natural chain unless they say otherwise; changes in a name come on top.
UniProt Q15116: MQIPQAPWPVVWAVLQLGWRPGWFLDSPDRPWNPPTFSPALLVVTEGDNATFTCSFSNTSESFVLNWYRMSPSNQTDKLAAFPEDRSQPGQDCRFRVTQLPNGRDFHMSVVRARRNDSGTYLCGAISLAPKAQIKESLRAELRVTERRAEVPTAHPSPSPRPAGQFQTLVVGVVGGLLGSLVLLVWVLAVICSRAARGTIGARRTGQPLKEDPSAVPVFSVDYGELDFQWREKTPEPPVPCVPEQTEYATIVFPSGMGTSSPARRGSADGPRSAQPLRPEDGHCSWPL

Tests used:
DD1α-HA (human) [1] = target: DD1α-HA (human) (UniProt Q9H7M9); experiment: Ig fusion protein pull-down from lysates of transfected 293T cells, anti-HA western blot
[2] = target: endogenous DD1α receptor in lysates of Nutlin-3-treated MCF7 cells (human) (UniProt Q9H7M9); experiment: Ig pull-down from lysates of Nutlin-3-treated MCF7 cells, western blot
[3] = target: endogenous DD1α receptor in lysates of Nutlin-3-treated MCF7 cells (human) (UniProt Q9H7M9); experiment: Ig fusion protein pull-down from lysates of Nutlin-3-treated MCF7 cells, western blot
PD1-HA (human) [4] = target: PD1-HA (human) (UniProt Q15116); experiment: Ig fusion protein pull-down from lysates of transfected 293T cells, anti-HA western blot
[5] = target: endogenous PD-1 in lysates of Nutlin-3-treated MCF7 cells (human) (UniProt Q15116); experiment: Ig pull-down from lysates of Nutlin-3-treated MCF7 cells, western blot
DD1α-HA (human) [6] = target: DD1α-HA (human) (UniProt Q9H7M9); experiment: Ig pull-down from lysates of transfected HEK293T cells, anti-HA western blot (FIG. 6C)
PD1-HA (human) [7] = target: PD1-HA (human) (UniProt Q15116); experiment: as above
[8] = target: endogenous PD-1 in lysates of Nutlin-3-treated MCF7 cells (human) (UniProt Q15116); experiment: Ig fusion protein pull-down from lysates of Nutlin-3-treated MCF7 cells, western blot
[9] = target: PD-1 (co-immunoprecipitation of FIG. 31) (Homo sapiens (Human)) (UniProt Q15116); experiment: co-immunoprecipitation
His-DD1α (33-194) = target: T1, His-DD1α (33-194) (human, UniProt Q9H7M9 33-194); experiment: in vitro GST pull-down, anti-His immunoblot
T1 construct: not shown: His tag of the pRSET vector (Invitrogen)

Measured: binding

PD-1-Ig (recombinant human PD-1-Ig, R&D Systems) (from UniProt Q15116 25-167) (Fc fusion)
binds: DD1α-HA (human) [1] | [2] | [3]

DD1α-Ig fusion protein (the extracellular region of DD1α fused with the immunoglobulin G Fc segment) (from UniProt Q9H7M9 33-194) (Fc fusion)
not listed: [2] | [9] | His-DD1α (33-194)
binds: all other assays above

DD1α (co-immunoprecipitation of FIG. 31) (from UniProt Q9H7M9 33-311) (receptor)
binds: [9]

B1: GST-DD1α (37-146), the immunoglobulin domain (protein, not shown: a dimerising Fc or GST; small tags and cut ends)
chain: TPYSLYVCPEGQNVTLTCRLLGPVDKGHDVTFYKTWYRSSRGEVQTCSERRPIRNLTFQDLHLHHGGHQAANTSHDLAQRHGLESASDHHGNFSITMRNLTLLDSGLYCC
binds: His-DD1α (33-194)
